{"source": "patent US20230181614A1", "about": "“ADMINISTRATION OF CITICOLINE TO IMPROVE COGNITIVE PERFORMANCE, ATTENTIONAL PERFORMANCE, AND MOTOR FUNCTION” (KYOWA HAKKO BIO CO., LTD., priority 2014, published 2023)", "key": {"[1]": {"tested_on": "Healthy subjects, ages 13-18", "assay": "Ruff 2 & 7 test (visual attention)", "assay_type": "in vivo, human", "details": "for Ruff 2 & 7 visit difference of total difference score, between groups / Ruff 2 & 7 visit difference of total speed score, between groups / Ruff 2 & 7 visit difference of total accuracy, speed difference, accuracy difference score, between groups: visit 1 to 3; for Ruff 2 & 7 visit difference of total difference score, between groups: p=0.02", "source_text": "Study participants were screened by telephone prior to study enrollment. Healthy subjects, ages 13-18, with no significant medical conditions and no history of co-morbid psychiatric disorder, current Axis I or II diagnosis, or previous participation in a pharmacotherapeutic trial, were selected. Use of any psychotropic medication or any previous head injury resulting in loss of consciousness for 5 or more minutes were used as exclusion criteria. While no participant met criteria for a neuropsychiatric disorder at enrollment, clinical assessments were still completed throughout the study to evaluate changes in mood state. In addition, self-reports of sleep habits, lifestyle, and exercise routines were also administered at baseline as well as at each study visit to assess changes in health habits during study participation. Following the completion of Visit 1 assessment, participants were given their 28-day supply of citicoline (250 mg or 500 mg) or placebo, which was randomly assigned. They were instructed to take one capsule a day every day for the next 28 days. Visit 2 occurred fourteen days after Visit 1. At Visit 2, the remaining study pills were counted and participant dosage calendars were checked to ensure compliance with the protocol. Additional neuropsychological measures and clinical assessments were administered during this visit. Participants returned for Visit 3 fourteen days later, on the 28th day of their study participation. The pill bottle and the dosage calendar were collected from each participant. Urine and blood were again obtained. Participants also participated in similar clinical and neuropsychological testing and clinical measures that were given during visit 1. The Ruff 2 & 7 measures two aspects of visual attention: sustained attention and selective attention. There are a series of 20 trials involving visual searching in which the respondent detects and marks through all given stimuli the digits “2” and “7”. In the 10 Automatic Detection trials, the target digits are embedded among alphabetical letters that serve as distractors. In the 10 Controlled Search trials, the target digits are embedded among other numbers that serve as distractors. Correct hits and errors are counted for each trial and serve as the basis for scoring the test. Accuracy scores evaluate the number of targets identified in relation to the number of possible targets. The Ruff 2 & 7 was administered at all three visits."}, "[2]": {"tested_on": "Healthy subjects, ages 13-18", "assay": "Children's Depression Rating Scale (CDRS)", "assay_type": "in vivo, human", "details": "for CDRS difference scores, between groups: visit 1 to visit 3; for CDRS depressive symptoms, within-group change: visit 1 to 3", "source_text": "Study participants were screened by telephone prior to study enrollment. Healthy subjects, ages 13-18, with no significant medical conditions and no history of co-morbid psychiatric disorder, current Axis I or II diagnosis, or previous participation in a pharmacotherapeutic trial, were selected. Use of any psychotropic medication or any previous head injury resulting in loss of consciousness for 5 or more minutes were used as exclusion criteria. While no participant met criteria for a neuropsychiatric disorder at enrollment, clinical assessments were still completed throughout the study to evaluate changes in mood state. In addition, self-reports of sleep habits, lifestyle, and exercise routines were also administered at baseline as well as at each study visit to assess changes in health habits during study participation. Following the completion of Visit 1 assessment, participants were given their 28-day supply of citicoline (250 mg or 500 mg) or placebo, which was randomly assigned. They were instructed to take one capsule a day every day for the next 28 days. Visit 2 occurred fourteen days after Visit 1. At Visit 2, the remaining study pills were counted and participant dosage calendars were checked to ensure compliance with the protocol. Additional neuropsychological measures and clinical assessments were administered during this visit. Participants returned for Visit 3 fourteen days later, on the 28th day of their study participation. The pill bottle and the dosage calendar were collected from each participant. Urine and blood were again obtained. Participants also participated in similar clinical and neuropsychological testing and clinical measures that were given during visit 1. The CDRS is an investigator-administered scale that are widely used as observational measures of depressive symptoms in children. The scale was administered at each of the three visits to assess presence or absence of depressive symptoms."}}, "note": "At least one structure is not confirmed: it was looked up by name or label, or the drawing left a doubt.", "data": [{"smiles": "C[N+](C)(C)CCOP(=O)(O)OP(=O)([O-])OC[C@H]1O[C@@H](n2ccc(N)nc2=O)[C@H](O)[C@@H]1O", "note": "[citicoline, Cytidine 5′-diphosphocholine]", "values": [{"measurement": "Ruff 2 & 7 total speed, total accuracy, speed difference, accuracy difference, total difference score, between groups", "setting": "[1]; 250 mg/day vs 500 mg/day, time 3, p=0.72, 0.10, 0.38, 0.14, 0.37", "result": "no significant differences"}, {"measurement": "Ruff 2 & 7 visit difference of five scores, between groups", "setting": "[1]; 250 mg/day vs 500 mg/day, visit 1 to visit 3, p=0.84, 0.51, 0.26, 0.19, 0.61", "result": "no significant differences"}, {"measurement": "Ruff 2 & 7 visit difference of total speed score, post-hoc", "setting": "[1]; 250 mg/day vs Placebo, p=0.08", "result": "trend toward differences"}, {"measurement": "Ruff 2 & 7 total speed, total accuracy, speed difference, accuracy difference, total difference score, between groups", "setting": "[1]; 250 mg/day vs Placebo, time 3, p=0.13, 0.30, 0.87, 0.81, 0.15", "result": "no significant differences"}, {"measurement": "Ruff 2 & 7 visit difference of total difference score, between groups", "setting": "[1]; 250 mg/day vs Placebo", "result": "significant differences"}, {"measurement": "Ruff 2 & 7 visit difference of total speed score, between groups", "setting": "[1]; 250 mg/day vs Placebo, p=0.05", "result": "trend toward a difference"}, {"measurement": "Ruff 2 & 7 visit difference of total accuracy, speed difference, accuracy difference score, between groups", "setting": "[1]; 250 mg/day vs Placebo, p=0.42, 0.52, 0.96", "result": "no significant differences"}, {"measurement": "Ruff 2 & 7 total speed score and total accuracy score, within-group change", "setting": "[1]; 250 mg/day, visit 1 to visit 3, p<0.01, p<0.01", "result": "significant differences"}, {"measurement": "Ruff 2 & 7 speed difference, accuracy difference, total difference score, within-group change", "setting": "[1]; 250 mg/day, visit 1 to visit 3, p=0.43, 0.26, 0.40", "result": "No significant differences"}, {"measurement": "Ruff 2 & 7 total speed, total accuracy, speed difference, accuracy difference score, within-group change", "setting": "[1]; 500 mg/day, visit 1 to visit 3, p<0.01, <0.01, 0.05, 0.01", "result": "significant differences"}, {"measurement": "Ruff 2 & 7 total difference score, within-group change", "setting": "[1]; 500 mg/day, visit 1 to visit 3, p=0.22", "result": "No significant differences"}, {"measurement": "Ruff 2 & 7 visit difference of total difference score, post-hoc", "setting": "[1]; Placebo vs 500 mg/day, p=0.01", "result": "significant differences"}, {"measurement": "Ruff 2 & 7 visit difference of total speed score, post-hoc", "setting": "[1]; Placebo vs 500 mg/day, p=0.06", "result": "trend toward differences"}, {"measurement": "Ruff 2 & 7 total difference score, between groups", "setting": "[1]; Placebo vs 500 mg/day, time 3, p=0.04", "result": "significant differences"}, {"measurement": "Ruff 2 & 7 total difference score, post-hoc", "setting": "[1]; Placebo vs 500 mg/day, time 3, p=0.05", "result": "trend toward differences"}, {"measurement": "Ruff 2 & 7 accuracy difference score, between groups", "setting": "[1]; Placebo vs 500 mg/day, time 3, p=0.09", "result": "trend toward a difference"}, {"measurement": "Ruff 2 & 7 total speed, total accuracy, speed difference score, between groups", "setting": "[1]; Placebo vs 500 mg/day, time 3, p=0.23, 0.60, 0.32", "result": "no significant differences"}, {"measurement": "Ruff 2 & 7 visit difference of total difference score, between groups", "setting": "[1]; Placebo vs 500 mg/day", "result": "significant differences"}, {"measurement": "Ruff 2 & 7 visit difference of total speed score, between groups", "setting": "[1]; Placebo vs 500 mg/day, p=0.05", "result": "trend toward a difference"}, {"measurement": "Ruff 2 & 7 visit difference of total accuracy, speed difference, accuracy difference score, between groups", "setting": "[1]; Placebo vs 500 mg/day, p=0.89, 0.13, 0.19", "result": "no significant differences"}, {"measurement": "Ruff 2 & 7 visit difference of total accuracy, speed difference, accuracy difference score, three groups", "setting": "[1]; p=0.36, 0.31, 0.16", "result": "no differences"}, {"measurement": "Ruff 2 & 7 total difference score, all three groups", "setting": "[1]; time 3, p=0.06", "result": "trend toward significant differences"}, {"measurement": "Ruff 2 & 7 total speed, total accuracy, speed difference, accuracy difference score, all three groups", "setting": "[1]; time 3, p=0.14, 0.14, 0.26, 0.12", "result": "No significant differences"}, {"measurement": "Ruff 2 & 7 visit difference of total difference score, three groups", "setting": "[1]; visit 1 to visit 3, p=0.01", "result": "significant differences"}, {"measurement": "Ruff 2 & 7 visit difference of total speed score, three groups", "setting": "[1]; visit 1 to visit 3, p=0.05", "result": "trend toward differences"}, {"measurement": "CDRS difference scores, between groups", "setting": "[2]; 250 mg/day vs 500 mg/day, p=0.22", "result": "no significant differences"}, {"measurement": "CDRS, between groups", "setting": "[2]; 250 mg/day vs 500 mg/day, visit 3, p=0.29", "result": "no significant difference"}, {"measurement": "CDRS difference scores, post-hoc", "setting": "[2]; 250 mg/day vs Placebo, p=0.07", "result": "trend toward greater declines"}, {"measurement": "CDRS difference scores, between groups", "setting": "[2]; 250 mg/day vs Placebo, p=0.10", "result": "no significant differences"}, {"measurement": "CDRS, between groups", "setting": "[2]; 250 mg/day vs Placebo, visit 3, p=0.93", "result": "no significant difference"}, {"measurement": "CDRS depressive symptoms, within-group change", "setting": "[2]; 250 mg/day, p=0.02", "result": "significant declines"}, {"measurement": "CDRS depressive symptoms, within-group change", "setting": "[2]; 500 mg/day, p=0.03", "result": "significant declines"}, {"measurement": "CDRS difference scores, between groups", "setting": "[2]; Placebo vs 500 mg/day, p=0.40", "result": "no significant differences"}, {"measurement": "CDRS, between groups", "setting": "[2]; Placebo vs 500 mg/day, visit 3, p=0.30", "result": "No significant difference"}, {"measurement": "CDRS difference scores, overall", "setting": "[2]; three groups, p=0.07", "result": "trend toward significant differences"}, {"measurement": "CDRS, overall analysis", "setting": "[2]; three groups, visit 3, p=0.27", "result": "no significant differences"}]}]}
